Experimental data reported in the supplement of paper PMC12067093, “Discovery and optimisation of a covalent ligand for TRIM25 and its application to targeted protein ubiquitination” (Chemical Science, 2025).
Some of the results follow.

The chains behind the UniProt entries cited, without tags or fusion partners. Where a name states a change or a piece, a line headed by the entry shows the natural chain unless it says otherwise.
UniProt Q5JTH9: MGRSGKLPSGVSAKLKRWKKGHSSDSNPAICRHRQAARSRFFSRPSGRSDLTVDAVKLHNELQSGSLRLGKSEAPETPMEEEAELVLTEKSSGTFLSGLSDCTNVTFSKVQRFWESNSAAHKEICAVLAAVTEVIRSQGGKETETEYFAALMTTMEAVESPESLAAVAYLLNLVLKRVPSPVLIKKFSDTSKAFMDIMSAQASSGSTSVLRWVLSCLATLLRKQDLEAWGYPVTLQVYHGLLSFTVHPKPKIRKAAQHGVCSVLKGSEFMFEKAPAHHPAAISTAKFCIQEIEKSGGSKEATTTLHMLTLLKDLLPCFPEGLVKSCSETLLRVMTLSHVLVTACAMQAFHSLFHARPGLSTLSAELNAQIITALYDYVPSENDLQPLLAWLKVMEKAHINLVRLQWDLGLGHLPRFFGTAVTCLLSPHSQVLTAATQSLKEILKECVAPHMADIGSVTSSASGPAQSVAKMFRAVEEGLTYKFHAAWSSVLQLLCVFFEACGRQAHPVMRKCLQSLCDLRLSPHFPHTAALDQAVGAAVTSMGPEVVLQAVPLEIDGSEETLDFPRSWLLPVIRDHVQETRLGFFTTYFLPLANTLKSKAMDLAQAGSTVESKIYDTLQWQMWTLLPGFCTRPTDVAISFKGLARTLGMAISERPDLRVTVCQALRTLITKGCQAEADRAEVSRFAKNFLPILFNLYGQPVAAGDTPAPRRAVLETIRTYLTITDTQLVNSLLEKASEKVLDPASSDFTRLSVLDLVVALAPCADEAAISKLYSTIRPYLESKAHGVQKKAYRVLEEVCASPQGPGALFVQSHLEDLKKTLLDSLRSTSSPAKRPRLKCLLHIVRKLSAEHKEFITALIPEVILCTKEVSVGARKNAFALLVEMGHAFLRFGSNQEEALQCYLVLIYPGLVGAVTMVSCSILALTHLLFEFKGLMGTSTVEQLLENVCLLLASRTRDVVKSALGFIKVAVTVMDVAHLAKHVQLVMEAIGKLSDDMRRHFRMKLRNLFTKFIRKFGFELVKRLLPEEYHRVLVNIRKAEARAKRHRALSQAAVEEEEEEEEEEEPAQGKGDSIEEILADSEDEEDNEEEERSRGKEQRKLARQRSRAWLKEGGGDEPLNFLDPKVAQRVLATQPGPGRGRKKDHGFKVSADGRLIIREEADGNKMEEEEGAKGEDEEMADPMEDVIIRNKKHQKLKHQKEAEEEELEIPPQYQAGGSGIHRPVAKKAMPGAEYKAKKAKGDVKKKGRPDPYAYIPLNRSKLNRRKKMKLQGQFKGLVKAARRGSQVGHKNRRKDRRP
UniProt O43159: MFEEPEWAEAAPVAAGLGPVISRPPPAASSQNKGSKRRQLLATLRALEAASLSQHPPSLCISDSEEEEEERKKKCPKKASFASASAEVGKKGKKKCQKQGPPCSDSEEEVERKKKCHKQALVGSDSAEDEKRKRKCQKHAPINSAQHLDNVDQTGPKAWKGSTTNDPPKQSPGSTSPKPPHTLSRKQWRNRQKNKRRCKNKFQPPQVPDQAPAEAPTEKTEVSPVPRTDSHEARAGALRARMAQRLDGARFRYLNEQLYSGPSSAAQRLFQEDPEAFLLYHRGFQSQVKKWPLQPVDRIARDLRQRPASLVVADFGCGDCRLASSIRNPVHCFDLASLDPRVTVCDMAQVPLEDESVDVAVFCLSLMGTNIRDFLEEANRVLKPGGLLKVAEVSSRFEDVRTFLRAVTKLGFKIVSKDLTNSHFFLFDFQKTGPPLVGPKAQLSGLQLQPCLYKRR
UniProt Q6PCB5: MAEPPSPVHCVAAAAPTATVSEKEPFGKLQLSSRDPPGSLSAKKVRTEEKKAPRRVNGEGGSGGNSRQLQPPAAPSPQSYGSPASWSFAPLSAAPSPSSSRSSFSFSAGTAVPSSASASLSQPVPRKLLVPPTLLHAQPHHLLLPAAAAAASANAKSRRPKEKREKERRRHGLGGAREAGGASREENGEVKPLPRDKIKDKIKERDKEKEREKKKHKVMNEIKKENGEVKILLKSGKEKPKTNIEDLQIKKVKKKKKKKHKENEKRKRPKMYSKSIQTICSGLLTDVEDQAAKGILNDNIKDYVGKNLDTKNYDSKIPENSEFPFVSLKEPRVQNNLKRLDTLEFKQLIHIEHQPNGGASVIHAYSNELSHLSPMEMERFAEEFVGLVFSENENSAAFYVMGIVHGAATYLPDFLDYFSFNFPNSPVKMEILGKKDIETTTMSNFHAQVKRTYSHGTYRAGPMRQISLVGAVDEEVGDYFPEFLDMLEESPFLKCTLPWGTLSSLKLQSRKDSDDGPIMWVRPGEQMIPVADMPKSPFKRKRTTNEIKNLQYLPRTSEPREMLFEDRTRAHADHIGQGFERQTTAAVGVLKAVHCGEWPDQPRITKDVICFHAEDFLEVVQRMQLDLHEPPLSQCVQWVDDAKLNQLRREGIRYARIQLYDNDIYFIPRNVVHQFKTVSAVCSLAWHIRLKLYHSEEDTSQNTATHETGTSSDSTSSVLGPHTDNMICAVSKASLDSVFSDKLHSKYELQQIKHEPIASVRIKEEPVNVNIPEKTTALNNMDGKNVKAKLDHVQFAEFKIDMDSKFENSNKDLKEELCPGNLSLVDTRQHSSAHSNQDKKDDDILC
UniProt Q9Y3Z3: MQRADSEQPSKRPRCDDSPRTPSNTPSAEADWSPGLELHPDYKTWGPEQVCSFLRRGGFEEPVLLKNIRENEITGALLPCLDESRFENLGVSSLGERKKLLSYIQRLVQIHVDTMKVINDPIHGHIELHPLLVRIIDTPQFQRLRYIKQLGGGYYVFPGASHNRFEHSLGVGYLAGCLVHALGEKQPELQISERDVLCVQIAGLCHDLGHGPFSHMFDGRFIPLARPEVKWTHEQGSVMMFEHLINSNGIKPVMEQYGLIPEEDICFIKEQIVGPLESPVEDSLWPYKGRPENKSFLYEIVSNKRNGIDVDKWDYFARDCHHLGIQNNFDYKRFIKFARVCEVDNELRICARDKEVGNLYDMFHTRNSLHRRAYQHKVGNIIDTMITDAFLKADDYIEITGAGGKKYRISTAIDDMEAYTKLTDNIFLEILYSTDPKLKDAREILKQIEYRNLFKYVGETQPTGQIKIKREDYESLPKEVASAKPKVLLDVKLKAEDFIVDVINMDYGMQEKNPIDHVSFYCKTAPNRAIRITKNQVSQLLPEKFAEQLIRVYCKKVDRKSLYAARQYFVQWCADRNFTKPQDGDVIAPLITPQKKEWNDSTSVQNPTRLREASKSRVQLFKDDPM
UniProt Q9H714: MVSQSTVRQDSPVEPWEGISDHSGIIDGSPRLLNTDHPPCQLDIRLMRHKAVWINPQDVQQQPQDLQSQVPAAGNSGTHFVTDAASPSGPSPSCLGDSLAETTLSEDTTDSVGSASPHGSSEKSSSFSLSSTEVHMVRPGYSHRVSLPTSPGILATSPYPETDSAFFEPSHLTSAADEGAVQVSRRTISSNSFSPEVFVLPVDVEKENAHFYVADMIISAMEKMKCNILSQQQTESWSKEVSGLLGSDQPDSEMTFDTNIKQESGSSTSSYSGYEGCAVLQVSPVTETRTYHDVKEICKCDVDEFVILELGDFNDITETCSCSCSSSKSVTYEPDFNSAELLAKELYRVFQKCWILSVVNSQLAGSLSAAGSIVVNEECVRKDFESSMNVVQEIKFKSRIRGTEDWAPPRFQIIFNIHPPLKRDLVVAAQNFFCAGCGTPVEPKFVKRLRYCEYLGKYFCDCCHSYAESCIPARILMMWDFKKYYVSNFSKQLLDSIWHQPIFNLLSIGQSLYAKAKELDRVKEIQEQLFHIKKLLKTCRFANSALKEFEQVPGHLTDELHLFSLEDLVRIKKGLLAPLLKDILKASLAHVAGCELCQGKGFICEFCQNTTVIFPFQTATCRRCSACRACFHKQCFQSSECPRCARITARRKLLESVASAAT
UniProt Q14684: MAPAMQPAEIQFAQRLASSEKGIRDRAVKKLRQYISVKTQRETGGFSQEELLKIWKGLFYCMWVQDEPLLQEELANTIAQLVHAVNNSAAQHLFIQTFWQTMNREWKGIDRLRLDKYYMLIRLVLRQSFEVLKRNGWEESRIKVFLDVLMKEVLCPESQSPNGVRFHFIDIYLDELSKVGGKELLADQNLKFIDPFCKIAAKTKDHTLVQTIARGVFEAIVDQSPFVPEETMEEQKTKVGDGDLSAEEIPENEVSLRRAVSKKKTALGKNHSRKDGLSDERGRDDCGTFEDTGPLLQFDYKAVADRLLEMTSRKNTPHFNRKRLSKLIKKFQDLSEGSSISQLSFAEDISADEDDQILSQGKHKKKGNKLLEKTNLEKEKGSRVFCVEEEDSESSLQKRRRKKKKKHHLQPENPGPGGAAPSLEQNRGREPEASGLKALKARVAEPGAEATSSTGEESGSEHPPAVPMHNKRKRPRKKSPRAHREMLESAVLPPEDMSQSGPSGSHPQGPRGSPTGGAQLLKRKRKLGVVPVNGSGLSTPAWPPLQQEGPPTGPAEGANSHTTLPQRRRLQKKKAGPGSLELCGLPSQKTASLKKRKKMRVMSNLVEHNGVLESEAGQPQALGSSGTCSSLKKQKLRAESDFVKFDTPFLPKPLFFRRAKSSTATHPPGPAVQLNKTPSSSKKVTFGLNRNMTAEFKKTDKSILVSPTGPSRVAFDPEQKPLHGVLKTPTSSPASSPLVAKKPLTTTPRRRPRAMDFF
UniProt O43818: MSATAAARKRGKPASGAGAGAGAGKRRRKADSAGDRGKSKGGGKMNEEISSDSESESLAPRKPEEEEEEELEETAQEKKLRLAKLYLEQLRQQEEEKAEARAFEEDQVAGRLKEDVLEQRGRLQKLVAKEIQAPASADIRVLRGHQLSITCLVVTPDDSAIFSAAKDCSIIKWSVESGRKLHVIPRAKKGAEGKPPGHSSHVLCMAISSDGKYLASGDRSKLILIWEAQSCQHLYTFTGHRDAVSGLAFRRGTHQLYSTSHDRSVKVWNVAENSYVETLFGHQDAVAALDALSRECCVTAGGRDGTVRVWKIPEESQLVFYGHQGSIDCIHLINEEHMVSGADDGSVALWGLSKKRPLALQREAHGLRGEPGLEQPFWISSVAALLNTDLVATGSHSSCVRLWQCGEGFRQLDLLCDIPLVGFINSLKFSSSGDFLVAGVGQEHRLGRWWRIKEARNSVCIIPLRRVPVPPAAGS
UniProt P60903, whole entry: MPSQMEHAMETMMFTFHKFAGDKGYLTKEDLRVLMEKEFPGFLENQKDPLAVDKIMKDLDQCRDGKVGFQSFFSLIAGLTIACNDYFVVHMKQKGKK
UniProt Q9UBE0: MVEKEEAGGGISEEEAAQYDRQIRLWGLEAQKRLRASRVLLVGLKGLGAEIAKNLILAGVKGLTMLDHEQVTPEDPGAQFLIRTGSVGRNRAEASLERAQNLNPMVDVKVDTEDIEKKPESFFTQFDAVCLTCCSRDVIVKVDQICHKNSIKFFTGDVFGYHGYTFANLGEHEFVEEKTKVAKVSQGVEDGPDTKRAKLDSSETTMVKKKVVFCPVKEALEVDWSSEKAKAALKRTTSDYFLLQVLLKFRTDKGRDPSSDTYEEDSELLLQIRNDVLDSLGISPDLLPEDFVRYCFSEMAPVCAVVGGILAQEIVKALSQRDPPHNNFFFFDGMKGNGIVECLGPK
UniProt O95197: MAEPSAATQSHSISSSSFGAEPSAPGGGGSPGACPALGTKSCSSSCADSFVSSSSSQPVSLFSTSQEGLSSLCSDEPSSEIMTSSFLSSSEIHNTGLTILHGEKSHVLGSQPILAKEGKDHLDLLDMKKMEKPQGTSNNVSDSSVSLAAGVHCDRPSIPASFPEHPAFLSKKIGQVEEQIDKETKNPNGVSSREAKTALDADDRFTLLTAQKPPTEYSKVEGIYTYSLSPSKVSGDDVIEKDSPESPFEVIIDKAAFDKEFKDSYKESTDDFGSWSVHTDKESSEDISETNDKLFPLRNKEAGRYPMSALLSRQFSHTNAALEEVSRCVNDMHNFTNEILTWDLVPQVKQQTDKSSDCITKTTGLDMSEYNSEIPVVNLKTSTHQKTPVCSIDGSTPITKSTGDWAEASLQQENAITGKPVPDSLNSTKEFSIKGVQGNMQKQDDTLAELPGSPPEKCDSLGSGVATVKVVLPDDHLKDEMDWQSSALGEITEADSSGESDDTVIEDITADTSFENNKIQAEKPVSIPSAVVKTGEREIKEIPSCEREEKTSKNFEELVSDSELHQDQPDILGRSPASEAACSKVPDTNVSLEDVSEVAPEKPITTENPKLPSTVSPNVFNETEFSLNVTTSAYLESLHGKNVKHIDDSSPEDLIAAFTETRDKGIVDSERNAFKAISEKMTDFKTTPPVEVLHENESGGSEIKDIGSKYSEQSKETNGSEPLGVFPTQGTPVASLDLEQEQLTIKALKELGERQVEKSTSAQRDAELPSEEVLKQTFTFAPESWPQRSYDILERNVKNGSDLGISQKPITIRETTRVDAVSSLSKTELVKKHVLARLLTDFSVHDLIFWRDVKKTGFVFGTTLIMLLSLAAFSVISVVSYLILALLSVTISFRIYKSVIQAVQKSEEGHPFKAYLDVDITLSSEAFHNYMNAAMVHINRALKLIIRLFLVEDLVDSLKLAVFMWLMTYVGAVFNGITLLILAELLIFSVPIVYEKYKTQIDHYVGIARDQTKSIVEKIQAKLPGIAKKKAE

Compound: CC1Cc2ccccc2N1C(=O)C1CCCN(C1)C(=O)CCl (mixture of isomers) [TRIM25 ligand 11 (diastereomer mixture)]
Test: probe-labelled cysteine peptide fold change vs DMSO (competition) (log2 fold change); higher = less target engagement (more negative = stronger competition)
Settings: THP-1, incubation time: 4 h
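Also: competitive chemoproteomic profiling in live THP-1 cells with an iodoacetamide desthiobiotin (IA-DTB) probe, comparing probe-labelled peptide intensities in compound-treated cells against DMSO-treated controls.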

Target | probe-labelled cysteine peptide fold change (10 µM) | probe-labelled cysteine peptide fold change (50 µM)
RPS4X_P62701_41_LRECLPLIIFLR (UniProt P62701) | -0.09 | 0.034
RRP12_Q5JTH9_673_GCQAEADR (UniProt Q5JTH9) | -0.0205 | -0.141
RRP8_O43159_317+320_QRPASLVVADFGCGDCR (UniProt O43159) | 0.0551 | -0.202
RSBN1L_Q6PCB5_595_AVHCGEWPDQPR (UniProt Q6PCB5) | 0.121 | -0.0484
RPS29_P62273_39_YGLNMCR (UniProt P62273) | -0.106 | -0.0278
SAMHD1_Q9Y3Z3_15_CDDSPR (UniProt Q9Y3Z3) | -0.104 | -0.119
RUBCNL_Q9H714_437_DLVVAAQNFFCAGCGTPVEPK (UniProt Q9H714) | 0.0917 | 0.00198
SAMD9_Q5K651_721_LEAMIQNCADSSKPTSTK (UniProt Q5K651) | -0.0972 | 0.0441
RRP1B_Q14684_583_AGPGSLELCGLPSQK (UniProt Q14684) | -0.0951 | -0.112
RRP9_O43818_296+297_ECCVTAGGR (UniProt O43818) | 0.057 | 0.0552
RRBP1_Q9P2E9_933_CEELSGLHGQLQEAR (UniProt Q9P2E9) | 0.402 | 0.111
RSF1_Q96T23_1311_IETDEEESCDNAHGDANQPAR (UniProt Q96T23) | 0.0514 | 0.0946
RPS21_P63220_56_TYAICGAIR (UniProt P63220) | -0.0961 | -0.0375
S100A10_P60903_62_DLDQCR (UniProt P60903) | -0.0944 | -0.0317
RPS12_P25398_108_VVGCSCVVVK (UniProt P25398) | 0.109 | 0.0354
RTTN_Q86VV8_2128_SSPLLPLLIFHNVCFSPANKPK (UniProt Q86VV8) | -0.115 | 0.216
SAE1_Q9UBE0_134_KPESFFTQFDAVCLTCCSR (UniProt Q9UBE0) | 0.107 | 0.0728
RPS27A_P62979_126_RECPSDECGAGVFMASHFDR (UniProt P62979) | -0.117 | -0.3
RPS28_P62857_27_TGSQGQCTQVR (UniProt P62857) | -0.262 | -0.0399
RTN3_O95197-3_42_SCSSSCAVHDLIFWR (UniProt O95197) | -0.124 | -0.737
RPS2_P15880_182_IGKPHTVPCK (UniProt P15880) | -0.1 | -0.122
RPS3A_P61247_96_NCLTNFHGMDLTR (UniProt P61247) | -0.0433 | -0.0888

Single records (already shown). Order of values: probe-labelled cysteine peptide fold change (10 µM) | probe-labelled cysteine peptide fold change (50 µM)
RRP1B_Q14684_583_AGPGSLELCGLPSQK (UniProt Q14684) is entered as -0.0951 | -0.112
RSBN1L_Q6PCB5_595_AVHCGEWPDQPR (UniProt Q6PCB5) is entered as 0.121 | -0.0484
